Data source: PubChem BioAssay AID504804 (Drosophila RNAi Screening Center, 2011)

Test: 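Fly genes whose loss lessens doxorubicin-driven cell death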 (primary screen)
Cells: Drosophila Kc cells
Reagent: long dsRNA against Drosophila genes, 0.5 µg dsRNA per well
Timing: 96 h (48 h knock-down, then 48 h drug)
Challenge: doxorubicin 5 µg/ml for 48 h, added 48 h after dsRNA
Detection: 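Viability measured as cellular ATP by luminescence after 48 h knock-down then 48 h doxorubicin at 5 µg/ml; unnormalised plate counts for each replicate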
Direction: raw ATP luminescence: higher = more viable cells, protection from doxorubicin
Call rule: 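Active when both duplicate wells lie at least 2 SD above the plate mean and protection is confirmed by rescreening and independent dsRNAs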
The deposit covers about 19,000 reagents; shown is an unselected part of those with a known target gene and a result. Of all reagents, 47 (0.25%) were called active. 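Signals are raw, not normalised; exact z-scores behind calls not deposited; actives needed confirmation, so some wells reaching 2 SD are inactive.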 Entries without a mark were called inactive. Reagent sequences are not shown.

target gene | DRSC id | raw ATP luminescence, replicate 1 | raw ATP luminescence, replicate 2
CG13117 (GeneID 34289) | DRSC02215 | 36710 | 68347
CG16854 (GeneID 34539) | DRSC02536 | 47660 | 83563
CG15601 (GeneID 32509) | DRSC19670 | 3.33e5 | 3.61e5
CG13054 (GeneID 39780) | DRSC09935 | 87437 | 53490
Klp98A (GeneID 43310) | DRSC16724 | 38650 | 44720
Kyat (GeneID 41433) | DRSC16147 | 51833 | 44843
Apt1 (GeneID 59176) | DRSC10348 | 63823 | 47663
CG5664 (GeneID 40371) | DRSC11782 | 1.84e5 | 2.21e5
CR34254 (GeneID 5740610) | DRSC09562 | 48380 | 76907
Klp31E (GeneID 34422) | DRSC03354 | 79480 | 56143
knk (GeneID 47137) | DRSC15993 | 56677 | 55027
Polr3A (GeneID 32524) | DRSC19766 | 3.70e5 | 3.35e5
CG11425 (GeneID 40472) | DRSC11657 | 63037 | 58970
Btnd (GeneID 31552) | DRSC18316 | 40380 | 36440
CG6749 (GeneID 39144) | DRSC10704 | 1.05e5 | 95580
Rbf2 (GeneID 41941) | DRSC16816 | 77650 | 77360
CG18249 (GeneID 40964) | DRSC15318 | 56587 | 21173
Ziz (GeneID 34030) | DRSC02506 | 24963 | 25753
Ziz (GeneID 34030) | DRSC02976 | 42803 | 29627
Jon99Fii (GeneID 43621) | DRSC15430 | 44350 | 43290
msl-1 (GeneID 35121) | DRSC03573 | 39773 | 32090
CG14515 (GeneID 43454) | DRSC14867 | 37840 | 38220
CG9801 (GeneID 41044) | DRSC16568 | 65363 | 22963
AstA-R2 (GeneID 43393) | DRSC14171 | 65230 | 39120
CG14262 (GeneID 43286) | DRSC14757 | 62840 | 49980
DEF8 (GeneID 39381) | DRSC09840 | 34447 | 39890
CG9890 (GeneID 37659) | DRSC04590 | 56313 | 62740
CG4338 (GeneID 41849) | DRSC15564 | 59193 | 20483
CG7945 (GeneID 39679) | DRSC10934 | 29700 | 23643
KdelR (GeneID 34427) | DRSC03353 | 93133 | 80730
spt4 (GeneID 36387) | DRSC07696 | 54240 | 43903
Prp40 (GeneID 33513) | DRSC00612 | 78380 | 63043
Uro (GeneID 34060) | DRSC03469 | 19030 | 23713
CG5098 (GeneID 37063) | DRSC06915 | 60150 | 51813

4 consecutive records already listed, quoted:
target gene | DRSC id | raw ATP luminescence, replicate 1 | raw ATP luminescence, replicate 2
Ziz (GeneID 34030) | DRSC02976 | 42803 | 29627
Jon99Fii (GeneID 43621) | DRSC15430 | 44350 | 43290
msl-1 (GeneID 35121) | DRSC03573 | 39773 | 32090
CG14515 (GeneID 43454) | DRSC14867 | 37840 | 38220
